Results reported in US20110046090A1, “MODULATION OF NEUROGENESIS WITH GABA AGENTS AND GABA ANALOGS” (BrainCells Inc., priority 2005, published 2011).

Test system: human neural stem cells (hNSCs)
Assay: neuronal differentiation of cultured human neural stem cells (TUJ-1 staining), agents alone and in combination;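 note: cells kept in mitogen-free test media, with growth-factor-free basal medium as the negative control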
Conditions: read-out: EC50 for neuronal differentiation, agent alone; compound run individually; % of neuronal positive control, basal media subtracted

Question: `NCCCC(=O)O` [GABA] was tested. Which EC50 did it give?
Answer: Its EC50 is 5.46 µM.
